Data from article PMC7819943, “Rice protein-binding microarrays: a tool to detect cis-acting elements near promoter regions in rice”.
The other results are listed elsewhere or left out.

biological target: T1, OsSMF1 (Oryza sativa, UniProt Q6ZLB0 1-436); experiment: protein-binding microarray (RPBM); PBS, 2% BSA, 51.3 ng/ul salmon testes DNA, 50 uM zinc acetate, 200 nM TF, 25 C, 1 h; high values mean tight binding; conditions: protein: recombinant; tags: N-terminal polyhistidine and DsRed monomer fusion (pET32a); chain copies: 2; label: CyDye5-dUTP incorporated in the synthesized complementary strand; 3' TTTTT single-stranded linker to array surface; dsDNA, one strand shown
T1 sequence: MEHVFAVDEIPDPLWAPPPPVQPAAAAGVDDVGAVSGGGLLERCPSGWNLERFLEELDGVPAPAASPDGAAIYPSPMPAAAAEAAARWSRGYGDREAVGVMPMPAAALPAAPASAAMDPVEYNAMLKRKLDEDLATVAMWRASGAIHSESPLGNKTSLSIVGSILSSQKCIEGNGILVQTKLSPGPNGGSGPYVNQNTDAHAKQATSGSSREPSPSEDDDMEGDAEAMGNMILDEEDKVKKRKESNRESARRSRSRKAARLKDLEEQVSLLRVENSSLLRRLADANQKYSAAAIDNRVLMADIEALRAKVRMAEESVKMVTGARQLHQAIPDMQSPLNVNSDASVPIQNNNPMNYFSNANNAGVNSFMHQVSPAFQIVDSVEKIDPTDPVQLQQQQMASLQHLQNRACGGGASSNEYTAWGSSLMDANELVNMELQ
Procedure, shortened: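 Transcription factors, each fused N-terminally to a polyhistidine tag and DsRed, were expressed in E. coli BL21-CodonPlus and purified on Ni–NTA. A custom Agilent array was made double-stranded by primer extension with Cy5-dUTP and blocked with 2% BSA. It was incubated with 200 nM protein in PBS, 2% BSA, salmon testes DNA and 50 µM zinc acetate at 25 °C for 1 h, then washed. The binding signal is per-feature fluorescence intensity (arbitrary units) read on an Axon 4000B scanner.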

Sequence	binding signal
TATCTCTCTCCCGCTGACAACCCGGTCACACCGAACCAACCGGAGTCACCTAGTGCAG	3850 fluorescence intensity (a.u.)
TGAGGCCTCAATTGCAAGCTTCACTAACAAACACAGAAAACGGAGTCACCTAGTGCAG	28000 fluorescence intensity (a.u.)
GATATAAACAGTGACGTATTAACGATTATTCCAACACTGCCGGAGTCACCTAGTGCAG	4120 fluorescence intensity (a.u.)
GATCGGGACGTGTCGCGCAGCATGCAAGCCGCCGCACCCGCGGAGTCACCTAGTGCAG	3940 fluorescence intensity (a.u.)
GGGCGCACCTACAGCACCAAGTGTAACCAGAGCTTACACACGGAGTCACCTAGTGCAG	3420 fluorescence intensity (a.u.)
CTACAGTATCTGGTGAATAGTAAATCAAAGCAGTAGTTTTCGGAGTCACCTAGTGCAG	3230 fluorescence intensity (a.u.)
CTGACGACCCGGATCAACCATTGGCAGCAGCTCCTGTACACGGAGTCACCTAGTGCAG	3580 fluorescence intensity (a.u.)
TTCCCGATCCCTCCCTCGTCATCAAGCCAACTCCATCGTTCGGAGTCACCTAGTGCAG	6040 fluorescence intensity (a.u.)
AAGGCCCGCCCGGAGCGCGAATGCATCCGTGCCGCGTCAACGGAGTCACCTAGTGCAG	5480 fluorescence intensity (a.u.)
ACACAGACATCATTGCAATGACAAGCCATTTTAGAGACAACGGAGTCACCTAGTGCAG	4120 fluorescence intensity (a.u.)
GGGCTAGTTTAGTACAGTAATTTAGTTTGGTAGAGCAGCCCGGAGTCACCTAGTGCAG	22100 fluorescence intensity (a.u.)
CCGGGCCCACATGTCATCGACTCATCAAGCAGCCAGCCAACGGAGTCACCTAGTGCAG	3160 fluorescence intensity (a.u.)
CCAGTGGACCCCACGCGTCAGCGTGCTCCAGTCCACTCGACGGAGTCACCTAGTGCAG	4630 fluorescence intensity (a.u.)
CGGTTCTCTTCCCCGAATCGAACGTGGTGGCGTCGGGCTTCGGAGTCACCTAGTGCAG	3570 fluorescence intensity (a.u.)
CGTACACGTAATATCCAATTCTGTTCTTGGGCCTCACGAGCGGAGTCACCTAGTGCAG	6460 fluorescence intensity (a.u.)
TGGCAGTTTTATTTTCGTCACATATATACGTGGATCATGGCGGAGTCACCTAGTGCAG	6810 fluorescence intensity (a.u.)
TGATGTTGTTTGTTGCTCAGCGCCAAGTAATATGGCAATGCGGAGTCACCTAGTGCAG	5280 fluorescence intensity (a.u.)
CGGCGGCGGCGGCAGGCGCGGCCGGGGACGGCGCTGACGGCGGAGTCACCTAGTGCAG	3750 fluorescence intensity (a.u.)
CTTTGGTCCTCACAGCCTCGACAATTATGTTACCGCGATCCGGAGTCACCTAGTGCAG	22900 fluorescence intensity (a.u.)
TCTGTGCTGATTAATCTCTCCCTCTCTTTGTTCCTCTTCTCGGAGTCACCTAGTGCAG	3530 fluorescence intensity (a.u.)
TTCGGATTATCGGATATATCCCTGCATGCCCACGCGGCGGCGGAGTCACCTAGTGCAG	3840 fluorescence intensity (a.u.)

Two entries picked at random from those above:
Sequence	binding signal
CTGACGACCCGGATCAACCATTGGCAGCAGCTCCTGTACACGGAGTCACCTAGTGCAG	3580 fluorescence intensity (a.u.)
CGGCGGCGGCGGCAGGCGCGGCCGGGGACGGCGCTGACGGCGGAGTCACCTAGTGCAG	3750 fluorescence intensity (a.u.)

Later entries:

Sequence	binding signal
GCTTTGTTGGTGATCAATAACGTGGACACTGGTCGGTGGTCGGAGTCACCTAGTGCAG	4090 fluorescence intensity (a.u.)
GTGGAGGCGAGGCGGCGAGAGGCGGGTAGCAGTGGAGGAGCGGAGTCACCTAGTGCAG	3430 fluorescence intensity (a.u.)
GCGATGCAAGCTGTGACACACTAACACTCTACTTGTACTACGGAGTCACCTAGTGCAG	4070 fluorescence intensity (a.u.)
GCGCGTATAGCCGTCGCGCGGAGGGACGAGCCAAGGCCACCGGAGTCACCTAGTGCAG	3690 fluorescence intensity (a.u.)
AATGCGCCACCGTGGCCCACCGCCGTGACCTCGCCGCCGGCGGAGTCACCTAGTGCAG	4800 fluorescence intensity (a.u.)
GCCCTCTATAATATGTCATTAGGACTGCTAATTGCTATACCGGAGTCACCTAGTGCAG	3920 fluorescence intensity (a.u.)
GGCCGGGCACGGGCGTCGTGCCACCACCGTCCGTCTGCGCCGGAGTCACCTAGTGCAG	4050 fluorescence intensity (a.u.)
GCATGCTTCAGCAGCCTATGTTAGTCGTTGTGGATAACGTCGGAGTCACCTAGTGCAG	4050 fluorescence intensity (a.u.)
CGCTATTCGCTATAGTGGTTTTGCTGTATCAAATAAGAGGCGGAGTCACCTAGTGCAG	18400 fluorescence intensity (a.u.)
CTAGCTTCCAATCAACCAGACAACAACCACATATATCTTTCGGAGTCACCTAGTGCAG	3230 fluorescence intensity (a.u.)
GTTGCCACAAGTACACGGAGTGTGTTGCTTTCGTCTCCCCCGGAGTCACCTAGTGCAG	3480 fluorescence intensity (a.u.)
TAGATACGTACTCCTACGCGTGTGCCGTGGCCGTACGTACCGGAGTCACCTAGTGCAG	4510 fluorescence intensity (a.u.)
GCCCACTCGTCACTGACTCTGTACTAGTACCCACGCCACGCGGAGTCACCTAGTGCAG	4090 fluorescence intensity (a.u.)
GAGAGCTACTATTGTATTTCTTTTATGTCTGTCTGATTTCCGGAGTCACCTAGTGCAG	4210 fluorescence intensity (a.u.)
CGAGCCCAACCAGAAACCAACCGTGTCACCACTACTCCCCCGGAGTCACCTAGTGCAG	3380 fluorescence intensity (a.u.)
CCCTGTCTCGATGTCGATGGACTGCTCGACGACGTGGTGGCGGAGTCACCTAGTGCAG	3520 fluorescence intensity (a.u.)
GATGGCGCTGACACGGCGTCCTTCTTCATGCGCAACTCTGCGGAGTCACCTAGTGCAG	5800 fluorescence intensity (a.u.)
TGTTGGTAATGCTACGTGTTTCAAATCAAAGGCCTGCTGTCGGAGTCACCTAGTGCAG	4020 fluorescence intensity (a.u.)
TCGGCGGCGGCGGCGGCGGAGGAGGAGGAGGAGTCAGCGACGGAGTCACCTAGTGCAG	4090 fluorescence intensity (a.u.)
AATATGAGATTTTGGCCTACGTGTTCTTTACATGTAGTGTCGGAGTCACCTAGTGCAG	3710 fluorescence intensity (a.u.)
ATCAAAGAGGATTCTGTATTGTATTGGCAACAACCGAAAACGGAGTCACCTAGTGCAG	13800 fluorescence intensity (a.u.)
